Data reported in the supplement of paper PMC3682954.
Values joined by “and” are separate entries in the source; they are usually repeats but may differ in a detail not shown here. Identical values can stand only once. Counter-ions that a name gives are not always drawn. ± gives the standard deviation of the averaged measurements. The list shows a part of the results. Many values rest on one well or one pass, so single values are uncertain.

Tested on: RAW 264.7
Test: HMGB1-induced TNF-alpha production relative to HMGB1-stimulated control; higher = more TNF-alpha secretion (less inhibition)
Conditions: stimulus: HMGB1 5 ug/ml, 18 h
[1] = compound concentration: 1 ug/ml

SMILES	HMGB1-induced TNF-alpha production [1] [%]	HMGB1-induced TNF-alpha production (compound concentration: 3 uM)
CC(=O)O[C@H]1CC[C@@]2(C)C(=CC[C@H]3[C@@H]4CC[C@H](C(C)=O)[C@@]4(C)CC[C@@H]32)C1 [Pregnenolone acetate]	63.8	
C=CCOC(Cn1ccnc1)c1ccc(Cl)cc1Cl (stereo unspecified) [Enilconazole]		95.8%
C=CCOC(Cn1ccnc1)c1ccc(Cl)cc1Cl (stereo unspecified)		87.2%
COc1ccc2c(=O)cc(-c3ccccc3)oc2c1O	46.2	
O=C(/C=C/c1ccc(O)c(O)c1)O[C@@H]1C[C@](O)(C(=O)O)C[C@@H](O)[C@H]1O [Chlorogenic Acid]	57.8	
CN(C)CCC(c1ccc(Br)cc1)c1ccccn1 (single isomer, unassigned; (+)) [(+)-Brompheniramine maleate]		101%
CC[C@@H](CO)NCCN[C@@H](CC)CO [Ethambutol dihydrochloride]		77.1%
CC[C@@H](CO)NCCN[C@@H](CC)CO		84.5%
CC(CN(C)C)C(C)(O)Cc1ccc(Cl)cc1 (stereo unspecified) [Clobutinol hydrochloride]		56.3%
O=c1cc(-c2ccccc2)oc2c1ccc1ccccc12 [7,8-Benzoflavone; alpha-Naphthoflavone]	54.7	
C[C@]1(Cn2ccnn2)[C@H](C(=O)O)N2C(=O)C[C@H]2S1(=O)=O [Tazobactam]		87%
CC(=O)OCC(=O)[C@@]1(OC(C)=O)[C@@H](C)C[C@H]2[C@@H]3C[C@H](F)C4=CC(=O)C=C[C@]4(C)[C@@]3(F)[C@@H](O)C[C@@]21C [Diflorasone Diacetate]		49.3%
CCCCC/C=C\C/C=C\C/C=C\C/C=C\CCCC(=O)O [Arachidonic acid]	75	
COc1cc(OC)c(C(=O)/C=C/c2ccc(O)c(OC)c2)c(OC)c1 [4-Hydroxy-2',3,4',6'-tetramethoxychalcone]	78.8	
CN1C2CCC1CC(OC(=O)C(O)c1ccccc1)C2 (stereo unspecified)		97.7%
CC(N)(Cc1ccc(O)c(O)c1)C(=O)O (racemic) [(±)-3-(3,4-dihydroxyphenyl)-2-methyl-DL-alanine]		106%
CCN(CC)CCOCCOC(=O)C(CC)(CC)c1ccccc1		70.8%
CCCOc1ccc(C(=O)OCCN(CC)CC)cc1N [Proparacaine hydrochloride]		108%
Nc1nc2c(ncn2[C@H]2C[C@H](O)[C@@H](COP(=O)(O)O)O2)c(=O)[nH]1 [2'-Deoxyguanosine 5'-monophosphate, sodium salt hydrate]	79	
C=CCSCC1Nc2cc(Cl)c(S(N)(=O)=O)cc2S(=O)(=O)N1 (stereo unspecified)		86.3%
C=CCSCC1Nc2cc(Cl)c(S(N)(=O)=O)cc2S(=O)(=O)N1 (stereo unspecified) [Althiazide]		97.7%
C[S+]([O-])CCC(N)C(=O)O (racemic) [DL-Methionine sulfoxide]	77.6	

SMILES	HMGB1-induced TNF-alpha production [1] [%]	HMGB1-induced TNF-alpha production (compound concentration: 3 uM)
COCCc1ccc(OCC(O)CNC(C)C)cc1 (racemic) [(±)-Metoprolol (+)-tartrate]		104%
NC(=O)c1cccc(N)c1 [3-aminobenzamide]		84.3%
NC(CCC(=O)O)C(=O)O (stereo not drawn) [D(-)-Glutamic acid]	61.1	
O=c1c(-c2ccc(O[C@@H]3O[C@H](CO)[C@@H](O)[C@H](O)[C@H]3O)cc2)coc2cc(O)cc(O)c12	82.3	
CNC(=N)NCCC[C@H](N)C(=O)O [NG-Monomethyl-L-arginine acetate]		114%
O=C(O)c1[nH]c(=O)[nH]c(=O)c1[N+](=O)[O-] [5-Nitroorotic acid, potassium salt monohydrate]	68.6	
c1ccc(CN(CC2=NCCN2)c2ccccc2)cc1 [Antazoline hydrochloride]		71%
c1ccc(CN(CC2=NCCN2)c2ccccc2)cc1		80.8%
Nc1ncnc2n[nH]c(Nc3ccc(F)cc3)c12		87.6%
CN(C)CC/C=C1/c2ccccc2COc2ccc(CC(=O)O)cc21 [Olopatadine hydrochloride]		101%
CN(C)CC/C=C1/c2ccccc2COc2ccc(CC(=O)O)cc21 [Olopatadine]		94%
CN(C)CC/C=C1/c2ccccc2COc2ccc(CC(=O)O)cc21		102%
O=C(O)C1=CCCN(CCON=C(c2ccccc2)c2ccccc2)C1 [NO-711 hydrochloride]		98.5%
Clc1ccc(N2CCN(Cc3cc4ccccn4n3)CC2)cc1		103%
CC(C(=O)O)c1ccc(C(=O)c2ccccc2)s1 (stereo unspecified) [Tiaprofenic acid]		61.7%
CC(=O)N(CC(O)CN(C(C)=O)c1c(I)c(C(=O)NCC(O)CO)c(I)c(C(=O)NCC(O)CO)c1I)c1c(I)c(C(=O)NCC(O)CO)c(I)c(C(=O)NCC(O)CO)c1I (stereo unspecified) [Iodixanol]		105%
COc1c(N2CCNC(C)C2)c(F)cc2c(=O)c(C(=O)O)cn(C3CC3)c12 (stereo unspecified) [Gatifloxacin]		95.2 ± 7.8%
COc1c(N2CCNC(C)C2)c(F)cc2c(=O)c(C(=O)O)cn(C3CC3)c12 (stereo unspecified)		91.8%
O=C(c1ccccc1)c1ccc2n1CCC2C(=O)O (stereo unspecified) [Ketorolac tris salt]		103%
O=C(c1ccccc1)c1ccc2n1CCC2C(=O)O (stereo unspecified) [Ketorolac tromethamine]		127%
CCOC(=O)[C@@](C)(N)Cc1ccc(O)c(O)c1 [Methyldopate hydrochloride]		97.6%
CCOC(=O)[C@@](C)(N)Cc1ccc(O)c(O)c1		77.5%

SMILES	HMGB1-induced TNF-alpha production [1] [%]	HMGB1-induced TNF-alpha production (compound concentration: 3 uM)
OCc1ccccc1O		98.5%
CNC(=O)[C@H]1O[C@@H](n2cnc3c(NCc4cccc(I)c4)nc(Cl)nc32)[C@H](O)[C@@H]1O [Chloro-IB-MECA]		69.7%
CN1Cc2c(N)cccc2C(c2ccccc2)C1 (stereo unspecified)		88.1%
CN1Cc2c(N)cccc2C(c2ccccc2)C1 (stereo unspecified) [Nomifensine maleate]		90.3 ± 30%
COc1cccc2c1C(=O)CC(c1ccccc1)O2 (stereo unspecified) [5-Methoxyflavanone]	66.4	
FC(F)(F)COCC(F)(F)F		86.7%
CCN[C@@H]1C[C@H](N)[C@@H](O[C@H]2OC(CN)=CC[C@H]2N)[C@H](O)[C@H]1O[C@H]1OC[C@](C)(O)[C@H](NC)[C@H]1O		84.3%
O=C1NC(=O)C(c2ccccc2)(c2ccccc2)N1 [5,5-Diphenylhydantoin]		77.8%
O=C1NC(=O)C(c2ccccc2)(c2ccccc2)N1 [Phenytoin]		95%
CC(C)(O)c1ccccc1CC[C@@H](SCC1(CC(=O)O)CC1)c1cccc(/C=C/c2ccc3ccc(Cl)cc3n2)c1 [Montelukast]		98.4 ± 1.5%
CC(C)(O)c1ccccc1CC[C@@H](SCC1(CC(=O)O)CC1)c1cccc(/C=C/c2ccc3ccc(Cl)cc3n2)c1		93% and 72.4%
COc1cccc(C(=O)NCCN2CCN(c3ccc(Cl)cc3)CC2)c1		75.1%
C=C(C)[C@@H]1CC=C(CO)CC1		104%
c1ccc(CNc2ncnc3nc[nH]c23)cc1 [Aminopurine, 6-benzyl]		83.1%
CC(=O)Oc1cccc(C)c1 [meta-CRESYL ACETATE]		74.7%
COc1cc(/C=C/CO)cc(OC)c1O [Sinapyl Alcohol]	71.9	
C=CCCCCCCCCC(=O)[O-].C=CCCCCCCCCC(=O)[O-].[Zn+2]		92.5%
NC1CCN(c2nc3c(cc2F)c(=O)c(C(=O)O)cn3-c2ccc(F)cc2F)C1 (stereo unspecified)		93.4%
NC1CCN(c2nc3c(cc2F)c(=O)c(C(=O)O)cn3-c2ccc(F)cc2F)C1 (stereo unspecified) [Tosufloxacin]		91.5%
NC1CCN(c2nc3c(cc2F)c(=O)c(C(=O)O)cn3-c2ccc(F)cc2F)C1 (stereo unspecified) [Tosufloxacin hydrochloride]		74.6%
Oc1cc2c(cc1O)C(c1ccccc1)CNCC2 (racemic)		85.6%
COC(=O)Nc1nc2cc([S+]([O-])c3ccccc3)ccc2[nH]1 (stereo unspecified) [Oxfendazol]		96.4%

SMILES	HMGB1-induced TNF-alpha production [1] [%]	HMGB1-induced TNF-alpha production (compound concentration: 3 uM)
COC(=O)Nc1nc2cc([S+]([O-])c3ccccc3)ccc2[nH]1 (stereo unspecified)		104%
COC(=O)Nc1nc2cc([S+]([O-])c3ccccc3)ccc2[nH]1 (stereo unspecified) [Oxfendazole]		89.6%
C[C@@H]1C(=O)NC2=Nc3cccc(Cl)c3CN21 [Quazinone]		109%
COc1ccccc1OCC(O)COC(N)=O (stereo unspecified)		94.7%
COc1ccccc1OCC(O)COC(N)=O (stereo unspecified) [Methocarbamol]		89.9%
Nc1c2c(nc3ccccc13)CCCC2O (stereo unspecified) [Hydroxytacrine maleate]		89.7%
Nc1c2c(nc3ccccc13)CCCC2O (stereo unspecified) [Hydroxytacrine]		94%
Nc1ccn([C@@H]2CS[C@H](CO)O2)c(=O)n1		101%
Nc1ccn([C@@H]2CS[C@H](CO)O2)c(=O)n1 [Lamivudine]		76.5%
Cc1cc(N)c2ccccc2[n+]1CCCCCCCCCC[n+]1c(C)cc(N)c2ccccc21 [Dequalinium dichloride]		69.6%
Cc1cc(N)c2ccccc2[n+]1CCCCCCCCCC[n+]1c(C)cc(N)c2ccccc21		125%
Cc1cc(N)c2ccccc2[n+]1CCCCCCCCCC[n+]1c(C)cc(N)c2ccccc21 [Dequalinium chloride hydrate]		92.2%
N#CC(C#N)=C(N)/C(C#N)=C/c1cc(O)c(O)c(O)c1 [Tyrphostin 51]		97.6%
CO/N=C(\C(=O)N[C@@H]1C(=O)N2C(C(=O)OC(C)OC(C)=O)=C(COC(N)=O)CS[C@H]12)c1ccco1 (stereo partly specified)		83.4%
CCN(CC)CCCCCCCCOC(=O)c1cc(OC)c(OC)c(OC)c1 [TMB-8 hydrochloride]		80.8%
CC1=C(C2=C(C)C(C(C)C)C3=C(C(=O)C(O)C3O)C2O)C(O)C2=C(C(O)C(O)C2=O)C1C(C)C (stereo unspecified)	91.3	
Cn1ccc2cc3c(cc21)CCN3C(=O)Nc1cccnc1		106%
O=C(O)CP(=O)(O)O [Phosphonoacetic acid]		122%
COC(=O)C1=CO[C@@H](O)[C@@H]2C(CO)=CC[C@H]12 [Genipin]	72.5	80.2%
